From US20050142568A1
These are yes or no findings as the source states them, for the method shown. In cells and extracts the contact can be indirect. Some results given as binding are weak or reduced against the parent protein; the word gives no strength. For part of these data: Sequences can lack the tags named with a protein.

The chains behind the UniProt entries cited, without tags or fusion partners. Residues count along the entry.
UniProt Q17778, residues 22-375: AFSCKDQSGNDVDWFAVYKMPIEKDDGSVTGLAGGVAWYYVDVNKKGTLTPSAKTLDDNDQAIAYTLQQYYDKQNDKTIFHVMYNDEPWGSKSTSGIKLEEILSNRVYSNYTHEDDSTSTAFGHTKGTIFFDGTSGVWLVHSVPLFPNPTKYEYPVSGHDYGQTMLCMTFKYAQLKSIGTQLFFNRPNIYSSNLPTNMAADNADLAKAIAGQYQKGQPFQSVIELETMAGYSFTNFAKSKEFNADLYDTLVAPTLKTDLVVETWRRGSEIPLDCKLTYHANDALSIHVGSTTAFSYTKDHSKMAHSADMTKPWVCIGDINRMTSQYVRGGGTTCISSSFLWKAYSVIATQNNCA

What was measured:
GST-CRN-1 (C. elegans) [1] = biological target: T1, GST-CRN-1 (C. elegans) (UniProt Q9N3T2); test: GST pull-down, in vitro
T1 sequence (looked up): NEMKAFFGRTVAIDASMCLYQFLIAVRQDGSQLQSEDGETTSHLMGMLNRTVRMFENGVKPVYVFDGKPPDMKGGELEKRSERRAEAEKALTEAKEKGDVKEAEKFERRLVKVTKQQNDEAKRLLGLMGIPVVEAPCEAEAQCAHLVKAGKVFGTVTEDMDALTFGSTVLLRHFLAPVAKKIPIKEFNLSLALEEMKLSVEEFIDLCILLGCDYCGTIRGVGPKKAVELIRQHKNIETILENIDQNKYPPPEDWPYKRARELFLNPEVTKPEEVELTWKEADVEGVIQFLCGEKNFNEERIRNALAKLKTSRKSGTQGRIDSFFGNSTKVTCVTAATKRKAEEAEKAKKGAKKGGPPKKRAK

GST-CRN-1 (C. elegans) [2] = biological target: T1, GST-CRN-1 (C. elegans); test: GST pull-down, 35S-Met protein vs GST fusion; ++ = strong interaction
GST-CRN-4 (C. elegans) [3] = biological target: T2, GST-CRN-4 (C. elegans) (UniProt Q10905); test: GST pull-down, 35S-Met protein vs GST fusion; + = consistently above background
T2 sequence (looked up): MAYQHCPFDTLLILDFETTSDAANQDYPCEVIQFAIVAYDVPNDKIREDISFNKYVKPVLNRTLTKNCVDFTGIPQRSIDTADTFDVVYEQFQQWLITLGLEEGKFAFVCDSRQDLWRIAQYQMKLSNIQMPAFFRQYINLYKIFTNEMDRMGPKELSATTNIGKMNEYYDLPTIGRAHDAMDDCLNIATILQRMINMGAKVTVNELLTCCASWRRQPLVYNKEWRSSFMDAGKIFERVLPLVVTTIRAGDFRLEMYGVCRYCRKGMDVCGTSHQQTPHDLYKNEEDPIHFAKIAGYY

GST-CRN-5 (C. elegans) = biological target: T3, GST-CRN-5 (C. elegans) (UniProt G5EG59); test: as above
T3 sequence: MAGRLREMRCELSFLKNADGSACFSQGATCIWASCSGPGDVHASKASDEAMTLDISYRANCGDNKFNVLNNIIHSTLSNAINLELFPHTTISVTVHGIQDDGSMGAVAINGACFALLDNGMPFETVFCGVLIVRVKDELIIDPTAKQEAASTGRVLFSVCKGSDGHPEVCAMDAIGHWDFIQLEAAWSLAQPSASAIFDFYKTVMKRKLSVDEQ

GST-CYP-13 (C. elegans) = test: as above
GST-CPS-6 (C. elegans) [4] = biological target: T4, GST-CPS-6 (C. elegans) (UniProt Q95NM6); test: GST pull-down, in vitro
T4 sequence (looked up): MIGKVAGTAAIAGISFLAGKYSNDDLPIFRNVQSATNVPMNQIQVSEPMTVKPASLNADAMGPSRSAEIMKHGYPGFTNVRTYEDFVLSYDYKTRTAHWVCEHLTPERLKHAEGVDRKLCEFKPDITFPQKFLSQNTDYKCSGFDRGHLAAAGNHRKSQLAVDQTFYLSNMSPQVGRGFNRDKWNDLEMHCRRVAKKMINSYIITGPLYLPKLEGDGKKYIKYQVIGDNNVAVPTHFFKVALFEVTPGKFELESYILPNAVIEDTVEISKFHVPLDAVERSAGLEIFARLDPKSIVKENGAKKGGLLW

GST-CPS-6 (C. elegans) [5] = biological target: T4, GST-CPS-6 (C. elegans); test: GST pull-down, 35S-Met protein vs GST fusion; ++ = strong interaction
GST-CRN-4 (C. elegans) [6] = biological target: T2, GST-CRN-4 (C. elegans); test: as above
GST-CRN-1 (C. elegans) [7] = biological target: T1, GST-CRN-1 (C. elegans); test: GST pull-down, 35S-Met protein vs GST fusion; + = consistently above background
GST-NUC-1 (C. elegans) = GST-NUC-1 (C. elegans) (UniProt Q17778); test: as above
[8] = biological target: T5, full-length ^35S-methionine labeled CPS-6 (C. elegans) (UniProt Q95NM6); test: GST pull-down
T5 sequence (35S-methionine labelled, looked up): T4 sequence (looked up)

[9] = biological target: T6, CPS-6(21-308) (C. elegans) (UniProt Q95NM6); test: GST pull-down (FIG. 7A)
T6 sequence (35S-methionine labelled, looked up): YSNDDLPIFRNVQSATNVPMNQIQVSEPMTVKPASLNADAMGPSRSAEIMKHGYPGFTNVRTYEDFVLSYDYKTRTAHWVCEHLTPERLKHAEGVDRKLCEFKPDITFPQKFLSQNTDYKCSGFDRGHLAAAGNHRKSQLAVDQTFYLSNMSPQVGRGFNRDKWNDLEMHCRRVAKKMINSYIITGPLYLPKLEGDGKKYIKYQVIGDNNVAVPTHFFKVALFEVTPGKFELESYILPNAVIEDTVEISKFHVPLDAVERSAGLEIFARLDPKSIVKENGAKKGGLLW

[10] = biological target: T5, full-length ^35S-methionine labeled CPS-6 (C. elegans); test: GST pull-down (FIG. 7A)
[11] = biological target: T5, full-length ^35S-methionine labeled CPS-6 (C. elegans); test: summary of Example 8 (GST pull-down)
[12] = biological target: T5, full-length ^35S-methionine labeled CPS-6 (C. elegans); test: in vitro GST pull-down
[13] = biological target: T5, full-length ^35S-methionine labeled CPS-6 (C. elegans); test: GST pull-down, 5 µg GST fusion, 35S-Met labelled proteins (FIG. 7A)

Measured: binding

B1: full-length ^35S-methionine labeled CPS-6 (enzyme, C. elegans, UniProt Q95NM6 1-308, looked up)
chain: T4 sequence (looked up)
modifications: 35S-methionine labelled
binds: GST-CRN-1 (C. elegans) [1] | GST-CRN-1 (C. elegans) [2] | GST-CRN-4 (C. elegans) [3] | GST-CRN-5 (C. elegans) | GST-CYP-13 (C. elegans)

B2: ^35S-Methionine labeled CRN-4 (enzyme, C. elegans, UniProt Q10905 1-298, looked up)
chain: T2 sequence (looked up)
modifications: 35S-methionine labelled
binds: GST-CPS-6 (C. elegans) [4] | GST-CPS-6 (C. elegans) [5] | GST-CRN-4 (C. elegans) [6] | GST-CRN-1 (C. elegans) [7] | GST-CRN-5 (C. elegans) | GST-NUC-1 (C. elegans)

B3: CRN-1 glutathione S-transferase fusion protein GST-CRN-1(21-382) (protein, C. elegans, UniProt Q9N3T2 21-382, looked up, not shown: a dimerising Fc or GST)
chain: T1 sequence (looked up)
binds: [8] | [9] | [10] | [11] | [12] | [13]

B4: CRN-1(DY-AA) (enzyme, C. elegans, UniProt Q9N3T2 1-382, looked up)
chain: MGIKGLSQVIADNAPSAIKVNEMKAFFGRTVAIDASMCLYQFLIAVRQDGSQLQSEDGETTSHLMGMLNRTVRMFENGVKPVYVFDGKPPDMKGGELEKRSERRAEAEKALTEAKEKGDVKEAEKFERRLVKVTKQQNDEAKRLLGLMGIPVVEAPCEAEAQCAHLVKAGKVFGTVTEDMDALTFGSTVLLRHFLAPVAKKIPIKEFNLSLALEEMKLSVEEFIDLCILLGCAACGTIRGVGPKKAVELIRQHKNIETILENIDQNKYPPPEDWPYKRARELFLNPEVTKPEEVELTWKEADVEGVIQFLCGEKNFNEERIRNALAKLKTSRKSGTQGRIDSFFGNSTKVTCVTAATKRKAEEAEKAKKGAKKGGPPKKRAK
binds: [10]
